The record followed here is paper doi:10.1101/2025.01.05.631413.

The chains behind the UniProt entries cited, without tags or fusion partners. Where a name states a change or a piece, a line headed by the entry shows the natural chain unless it says otherwise.
UniProt Q8NBP7: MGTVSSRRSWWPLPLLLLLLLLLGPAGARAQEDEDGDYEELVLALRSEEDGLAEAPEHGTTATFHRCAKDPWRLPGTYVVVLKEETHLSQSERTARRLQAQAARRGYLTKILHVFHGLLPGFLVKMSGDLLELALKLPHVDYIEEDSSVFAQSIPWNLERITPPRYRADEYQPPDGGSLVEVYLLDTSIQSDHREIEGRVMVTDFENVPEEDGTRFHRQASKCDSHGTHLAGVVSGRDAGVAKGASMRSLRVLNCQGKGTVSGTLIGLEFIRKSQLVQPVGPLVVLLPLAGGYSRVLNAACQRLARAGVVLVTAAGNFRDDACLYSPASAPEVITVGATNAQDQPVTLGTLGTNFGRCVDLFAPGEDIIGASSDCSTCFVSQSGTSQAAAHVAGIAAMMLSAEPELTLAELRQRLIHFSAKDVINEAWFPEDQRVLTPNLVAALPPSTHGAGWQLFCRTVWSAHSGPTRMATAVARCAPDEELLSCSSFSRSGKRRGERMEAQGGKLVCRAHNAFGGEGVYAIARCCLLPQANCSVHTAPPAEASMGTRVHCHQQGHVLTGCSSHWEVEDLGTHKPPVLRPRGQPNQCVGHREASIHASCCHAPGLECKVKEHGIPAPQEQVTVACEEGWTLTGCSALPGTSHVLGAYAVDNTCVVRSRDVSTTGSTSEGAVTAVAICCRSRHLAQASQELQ

Holding throughout (experiment): co-IP
Assay [1] addresses T1, Angiopoietin-like protein 3 (ANGPTL3) (human (endogenous in HepG2)) (UniProt Q9Y5C1).
T1 sequence: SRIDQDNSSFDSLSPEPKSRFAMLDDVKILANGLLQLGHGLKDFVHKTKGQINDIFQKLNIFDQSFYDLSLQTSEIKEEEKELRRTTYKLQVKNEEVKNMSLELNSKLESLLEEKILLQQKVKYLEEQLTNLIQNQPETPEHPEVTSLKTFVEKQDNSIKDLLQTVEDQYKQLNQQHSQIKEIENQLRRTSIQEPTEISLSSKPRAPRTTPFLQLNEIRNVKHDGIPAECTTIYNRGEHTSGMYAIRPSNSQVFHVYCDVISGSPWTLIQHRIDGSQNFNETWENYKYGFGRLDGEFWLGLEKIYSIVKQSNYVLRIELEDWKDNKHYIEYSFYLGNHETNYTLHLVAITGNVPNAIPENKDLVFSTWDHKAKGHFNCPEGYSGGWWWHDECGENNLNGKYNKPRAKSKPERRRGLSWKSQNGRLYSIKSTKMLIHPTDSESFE

The target in assay [2] is proprotein convertase subtilisin/kexin-like 9 (PCSK9), intracellular (human (endogenous in HepG2)) (UniProt Q8NBP7).
For assay [3], the target named is mature form of proprotein convertase subtilisin/kexin-like 9 (PCSK9), secreted (human (endogenous in HepG2)).

These are yes or no findings as the source states them, for the method shown. Binding seen in cells or lysates may run through a third protein. Binding calls can cover weak binding; strength is not graded here.

Turning to “proprotein convertase subtilisin/kexin-like 9 (PCSK9), intracellular (from UniProt Q8NBP7-1)”, in assay [1], the binding result is given as “binds”.

B1: Angiopoietin-like protein 3 (ANGPTL3) (protein, UniProt Q9Y5C1 17-460)
chain: T1 sequence
Turning to B1, the binding result in assay [2] and in assay [3] was “binds” throughout.
